Data on 4 molecules can be found in article PMC12661054, “The CIP2A-TOPBP1 axis facilitates mitotic DNA repair via MiDAS and MMEJ” (Nature Communications, 2025).

Chains of the proteins cited; added tags and fusions are not shown.
UniProt Q92547: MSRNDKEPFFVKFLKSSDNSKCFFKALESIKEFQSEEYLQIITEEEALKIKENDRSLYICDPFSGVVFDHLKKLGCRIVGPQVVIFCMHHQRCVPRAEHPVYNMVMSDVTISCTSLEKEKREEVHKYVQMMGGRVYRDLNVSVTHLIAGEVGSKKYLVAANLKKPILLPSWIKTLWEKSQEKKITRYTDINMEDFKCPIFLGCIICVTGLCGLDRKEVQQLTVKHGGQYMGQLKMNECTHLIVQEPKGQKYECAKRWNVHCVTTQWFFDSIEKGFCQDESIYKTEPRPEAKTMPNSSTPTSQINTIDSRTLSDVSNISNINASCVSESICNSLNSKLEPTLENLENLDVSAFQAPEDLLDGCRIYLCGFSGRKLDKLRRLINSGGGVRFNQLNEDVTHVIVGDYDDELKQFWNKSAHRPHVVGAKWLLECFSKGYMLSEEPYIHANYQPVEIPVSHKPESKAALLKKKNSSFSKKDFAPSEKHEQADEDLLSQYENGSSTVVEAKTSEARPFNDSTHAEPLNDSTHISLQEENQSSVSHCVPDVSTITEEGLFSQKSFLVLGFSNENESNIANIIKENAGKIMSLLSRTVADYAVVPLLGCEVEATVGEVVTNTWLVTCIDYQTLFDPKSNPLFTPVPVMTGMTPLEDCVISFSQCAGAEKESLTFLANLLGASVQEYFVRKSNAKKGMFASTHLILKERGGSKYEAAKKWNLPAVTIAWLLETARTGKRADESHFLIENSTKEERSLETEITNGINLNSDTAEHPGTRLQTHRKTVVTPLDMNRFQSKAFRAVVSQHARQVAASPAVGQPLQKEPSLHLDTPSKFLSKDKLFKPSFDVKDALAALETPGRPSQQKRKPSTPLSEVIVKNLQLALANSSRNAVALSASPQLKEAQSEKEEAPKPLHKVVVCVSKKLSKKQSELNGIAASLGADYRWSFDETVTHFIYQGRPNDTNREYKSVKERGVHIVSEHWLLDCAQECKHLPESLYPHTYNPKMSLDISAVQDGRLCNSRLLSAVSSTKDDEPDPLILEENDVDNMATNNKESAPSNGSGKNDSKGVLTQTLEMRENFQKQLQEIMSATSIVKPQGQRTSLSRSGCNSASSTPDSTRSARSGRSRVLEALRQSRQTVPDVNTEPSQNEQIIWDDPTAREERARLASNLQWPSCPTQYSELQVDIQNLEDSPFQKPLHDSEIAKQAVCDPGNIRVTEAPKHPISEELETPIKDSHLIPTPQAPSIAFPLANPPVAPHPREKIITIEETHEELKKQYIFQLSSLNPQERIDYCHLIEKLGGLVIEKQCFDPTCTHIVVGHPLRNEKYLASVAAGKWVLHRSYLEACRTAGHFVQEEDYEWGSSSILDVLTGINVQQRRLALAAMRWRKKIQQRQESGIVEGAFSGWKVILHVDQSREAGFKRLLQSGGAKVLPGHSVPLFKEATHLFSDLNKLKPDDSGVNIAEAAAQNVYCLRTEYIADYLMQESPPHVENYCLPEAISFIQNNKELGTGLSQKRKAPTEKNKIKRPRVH

Assay [1] concerns the target TOPBP1 (endogenous) (human (endogenous in HEK293TN)) (UniProt Q92547). The assay is described as follows: affinity purification with mass spectrometry; endogenous TOPBP1 Co-IPs from asynchronous and M phase synchronised HEK293TN cells; TMT isobaric labelling, quantitative LC-MS.
Assay [2] has the same target. In words: affinity purification with mass spectrometry; endogenous TOPBP1 precipitated with anti-TOPBP1 (A300-111A) on Dynabeads protein G from benzonase-treated HEK293TN lysates (asynchronous, S phase, M phase); IgG beads as control; label-free DIA LC-MS.

These are yes or no findings as the source states them, for the method shown. In cells and extracts the contact can be indirect. A yes stands for co-enrichment or nearness to the bait. Other partners may have been found.

B1: EME1 (endogenous) (protein, UniProt Q96AY2 1-570)
chain: MALKKSSPSLDSGDSDSEELPTFAFLKKEPSSTKRRQPEREEKIVVVDISDCEASCPPAPELFSPPVPEIAETVTQTQPVRLLSSESEDEEEFIPLAQRLTCKFLTHKQLSPEDSSSPVKSVLDHQNNEGASCDWKKPFPKIPEVPLHDTPERSAADNKDLILDPCCQLPAYLSTCPGQSSSLAVTKTNSDILPPQKKTKPSQKVQGRGSHGCRQQRQARQKESTLRRQERKNAALVTRMKAQRPEECLKHIIVVLDPVLLQMEGGGQLLGALQTMECRCVIEAQAVPCSVTWRRRAGPSEDREDWVEEPTVLVLLRAEAFVSMIDNGKQGSLDSTMKGKETLQGFVTDITAKTAGKALSLVIVDQEKCFSAQNPPRRGKQGANKQTKKQQQRQPEASIGSMVSRVDAEEALVDLQLHTEAQAQIVQSWKELADFTCAFTKAVAEAPFKKLRDETTFSFCLESDWAGGVKVDLAGRGLALVWRRQIQQLNRVSLEMASAVVNAYPSPQLLVQAYQQCFSDKERQNLLADIQVRRGEGVTSTSRRIGPELSRRIYLQMTTLQPHLSLDSAD
With B1, the binding entry in assay [1] and in assay [2] was “binds” each time.

B2: MUS81 (endogenous) (protein, UniProt Q96NY9 1-551)
chain: MAAPVRLGRKRPLPACPNPLFVRWLTEWRDEATRSRRRTRFVFQKALRSLRRYPLPLRSGKEAKILQHFGDGLCRMLDERLQRHRTSGGDHAPDSPSGENSPAPQGRLAEVQDSSMPVPAQPKAGGSGSYWPARHSGARVILLVLYREHLNPNGHHFLTKEELLQRCAQKSPRVAPGSARPWPALRSLLHRNLVLRTHQPARYSLTPEGLELAQKLAESEGLSLLNVGIGPKEPPGEETAVPGAASAELASEAGVQQQPLELRPGEYRVLLCVDIGETRGGGHRPELLRELQRLHVTHTVRKLHVGDFVWVAQETNPRDPANPGELVLDHIVERKRLDDLCSSIIDGRFREQKFRLKRCGLERRVYLVEEHGSVHNLSLPESTLLQAVTNTQVIDGFFVKRTADIKESAAYLALLTRGLQRLYQGHTLRSRPWGTPGNPESGAMTSPNPLCSLLTFSDFNAGAIKNKAQSVREVFARQLMQVRGVSGEKAAALVDRYSTPASLLAAYDACATPKEQETLLSTIKCGRLQRNLGPALSRTLSQLYCSYGPLT
For the molecule B2, the binding entry in assay [2] is “binds”.

B3: ERCC4/XPF (endogenous) (protein, UniProt Q92889 1-916)
chain: MESGQPARRIAMAPLLEYERQLVLELLDTDGLVVCARGLGADRLLYHFLQLHCHPACLVLVLNTQPAEEEYFINQLKIEGVEHLPRRVTNEITSNSRYEVYTQGGVIFATSRILVVDFLTDRIPSDLITGILVYRAHRIIESCQEAFILRLFRQKNKRGFIKAFTDNAVAFDTGFCHVERVMRNLFVRKLYLWPRFHVAVNSFLEQHKPEVVEIHVSMTPTMLAIQTAILDILNACLKELKCHNPSLEVEDLSLENAIGKPFDKTIRHYLDPLWHQLGAKTKSLVQDLKILRTLLQYLSQYDCVTFLNLLESLRATEKAFGQNSGWLFLDSSTSMFINARARVYHLPDAKMSKKEKISEKMEIKEGEETKKELVLESNPKWEALTEVLKEIEAENKESEALGGPGQVLICASDDRTCSQLRDYITLGAEAFLLRLYRKTFEKDSKAEEVWMKFRKEDSSKRIRKSHKRPKDPQNKERASTKERTLKKKKRKLTLTQMVGKPEELEEEGDVEEGYRREISSSPESCPEEIKHEEFDVNLSSDAAFGILKEPLTIIHPLLGCSDPYALTRVLHEVEPRYVVLYDAELTFVRQLEIYRASRPGKPLRVYFLIYGGSTEEQRYLTALRKEKEAFEKLIREKASMVVPEEREGRDETNLDLVRGTASADVSTDTRKAGGQEQNGTQQSIVVDMREFRSELPSLIHRRGIDIEPVTLEVGDYILTPEMCVERKSISDLIGSLNNGRLYSQCISMSRYYKRPVLLIEFDPSKPFSLTSRGALFQEISSNDISSKLTLLTLHFPRLRILWCPSPHATAELFEELKQSKPQPDAATALAITADSETLPESEKYNPGPQDFLLKMPGVNAKNCRSLMHHVKNIAELAALSQDELTSILGNAANAKQLYDFIHTSFAEVVSKGKGKK
As to B3, the binding result in assay [1] and in assay [2] was “binds” throughout.

B4: ERCC1 (endogenous) (protein, UniProt P07992 1-297)
chain: MDPGKDKEGVPQPSGPPARKKFVIPLDEDEVPPGVAKPLFRSTQSLPTVDTSAQAAPQTYAEYAISQPLEGAGATCPTGSEPLAGETPNQALKPGAKSNSIIVSPRQRGNPVLKFVRNVPWEFGDVIPDYVLGQSTCALFLSLRYHNLHPDYIHGRLQSLGKNFALRVLLVQVDVKDPQQALKELAKMCILADCTLILAWSPEEAGRYLETYKAYEQKPADLLMEKLEQDFVSRVTECLTTVKSVNKTDSQTLLTTFGSLEQLIAASREDLALCPGLGPQKARRLFDVLHEPFLKVP
Turning to B4, the binding entry in assay [2] is listed as “binds”.
